Paper PMC3168509, “Insights into the Role of Yeast eIF2A in IRES-Mediated Translation” (PLoS ONE, 2011)
These are yes or no findings as the source states them, for the method shown. In cells and extracts the contact can be indirect. Some binding calls cover weakened binding; strength is not graded here. For part of these data: Sequences can lack the tags named with a protein. Each block holds one molecule with its values, some of them ahead of it.

Amino acid sequences for entries named in this document (tags omitted). A change or cut given only in a name is not applied to a line headed by its entry.
UniProt P02994: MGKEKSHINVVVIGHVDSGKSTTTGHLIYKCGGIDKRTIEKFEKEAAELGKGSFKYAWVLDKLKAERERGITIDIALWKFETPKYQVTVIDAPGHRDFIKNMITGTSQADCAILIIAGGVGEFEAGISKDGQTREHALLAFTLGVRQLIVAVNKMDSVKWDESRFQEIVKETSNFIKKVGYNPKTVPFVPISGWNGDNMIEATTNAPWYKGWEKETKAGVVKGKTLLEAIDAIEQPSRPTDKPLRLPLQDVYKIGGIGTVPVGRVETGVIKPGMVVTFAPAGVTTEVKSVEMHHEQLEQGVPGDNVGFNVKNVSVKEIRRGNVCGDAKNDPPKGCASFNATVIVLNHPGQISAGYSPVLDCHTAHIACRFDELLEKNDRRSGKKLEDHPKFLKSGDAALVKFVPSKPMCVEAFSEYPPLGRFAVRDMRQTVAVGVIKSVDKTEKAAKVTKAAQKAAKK
UniProt Q13526: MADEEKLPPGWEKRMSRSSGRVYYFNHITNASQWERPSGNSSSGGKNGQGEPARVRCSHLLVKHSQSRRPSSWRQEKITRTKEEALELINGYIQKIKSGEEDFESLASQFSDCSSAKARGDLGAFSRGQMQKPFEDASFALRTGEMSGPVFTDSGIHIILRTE
UniProt P40150: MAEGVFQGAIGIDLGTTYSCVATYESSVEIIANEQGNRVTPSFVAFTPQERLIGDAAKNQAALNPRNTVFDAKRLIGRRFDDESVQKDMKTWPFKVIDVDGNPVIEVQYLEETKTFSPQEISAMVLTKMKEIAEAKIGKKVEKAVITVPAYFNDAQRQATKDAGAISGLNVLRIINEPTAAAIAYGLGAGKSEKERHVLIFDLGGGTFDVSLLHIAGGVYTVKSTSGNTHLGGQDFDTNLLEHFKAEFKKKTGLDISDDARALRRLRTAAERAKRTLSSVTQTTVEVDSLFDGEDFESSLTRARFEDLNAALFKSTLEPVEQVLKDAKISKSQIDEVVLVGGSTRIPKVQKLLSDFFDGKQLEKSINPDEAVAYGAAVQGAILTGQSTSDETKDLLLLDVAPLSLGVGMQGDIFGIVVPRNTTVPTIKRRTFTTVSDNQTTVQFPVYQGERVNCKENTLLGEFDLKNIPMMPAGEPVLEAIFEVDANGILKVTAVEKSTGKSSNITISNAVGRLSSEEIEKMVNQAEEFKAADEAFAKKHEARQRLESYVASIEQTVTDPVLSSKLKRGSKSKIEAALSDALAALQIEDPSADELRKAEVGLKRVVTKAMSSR

Columns and labels:
[1] = target: T1, 3-phosphoglycerate kinase (Pgk1p), endogenous (S. cerevisiae (endogenous in yeast)) (UniProt P00560); assay: co-IP; pre-cleared eIF2A-HA yeast lysate, antibody (α-HA, α-3-phosphoglycerate kinase, α-eEF1A antiserum or preimmune serum; α-Kem1p experiments done likewise) at 4°C, protein A Sepharose, NETK washes, Western blot; without RNase A
T1 sequence: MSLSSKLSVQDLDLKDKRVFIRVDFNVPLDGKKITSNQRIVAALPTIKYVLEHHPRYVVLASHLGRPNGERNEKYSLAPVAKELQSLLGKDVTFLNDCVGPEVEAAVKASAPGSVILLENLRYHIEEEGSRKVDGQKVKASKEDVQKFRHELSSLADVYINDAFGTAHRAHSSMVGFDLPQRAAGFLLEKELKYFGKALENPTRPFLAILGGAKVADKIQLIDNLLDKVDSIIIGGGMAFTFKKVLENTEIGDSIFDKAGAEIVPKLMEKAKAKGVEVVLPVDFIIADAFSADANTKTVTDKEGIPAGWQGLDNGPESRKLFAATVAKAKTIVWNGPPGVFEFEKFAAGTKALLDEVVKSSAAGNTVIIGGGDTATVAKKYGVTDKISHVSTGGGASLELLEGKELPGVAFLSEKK

[2] = target: T2, eIF2A-HA (chromosomally C-terminally HA-tagged eIF2A under its endogenous promoter) (S. cerevisiae) (UniProt P53235); assay: as above
T2 sequence: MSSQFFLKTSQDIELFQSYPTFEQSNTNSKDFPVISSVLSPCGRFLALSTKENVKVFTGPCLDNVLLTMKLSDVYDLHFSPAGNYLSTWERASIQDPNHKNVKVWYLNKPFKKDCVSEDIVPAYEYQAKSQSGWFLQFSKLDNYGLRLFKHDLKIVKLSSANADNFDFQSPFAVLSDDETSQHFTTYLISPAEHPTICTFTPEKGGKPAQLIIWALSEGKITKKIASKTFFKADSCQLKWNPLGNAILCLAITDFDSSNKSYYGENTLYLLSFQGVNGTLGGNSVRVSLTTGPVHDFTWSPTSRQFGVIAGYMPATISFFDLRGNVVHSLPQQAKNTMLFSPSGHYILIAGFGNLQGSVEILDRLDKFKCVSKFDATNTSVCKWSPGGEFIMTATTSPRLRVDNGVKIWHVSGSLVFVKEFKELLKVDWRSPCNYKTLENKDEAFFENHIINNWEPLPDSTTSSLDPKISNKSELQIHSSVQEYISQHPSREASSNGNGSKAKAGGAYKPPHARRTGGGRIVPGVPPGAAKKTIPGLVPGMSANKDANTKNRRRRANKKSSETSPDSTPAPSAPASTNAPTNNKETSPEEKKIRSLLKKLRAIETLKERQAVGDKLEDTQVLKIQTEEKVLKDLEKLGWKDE

[3] = target: GST-eEF1A (full-length eEF1A/Tef1p fused to GST) (S. cerevisiae) (UniProt P02994); assay: pull-down; GST-fusion protein on glutathione-sepharose 4B incubated with 140 µg pre-cleared lysate of eIF2A-HA yeast or C-terminal eIF2A-HA deletion yeast, washed with NETK buffer, Western blot for HA; without RNase A; only the target purified
[4] = target: GST-PIN1, a mammalian cis-trans prolyl isomerase (mammalian) (UniProt Q13526); assay: as above
[5] = target: GST-eEF1A S405P (S. cerevisiae) (UniProt P02994); assay: as above
[6] = target: GST-Ssb2p (S. cerevisiae) (UniProt P40150); assay: as above
[7] = target: GST-eEF1A (full-length eEF1A/Tef1p fused to GST) (S. cerevisiae) (UniProt P02994); assay: pull-down; as the GST pull-down with eIF2A-HA yeast lysate, half of the reaction treated with 10 µg RNaseA for 1 h at 4°C before SDS-PAGE and Western blot for HA; only the target purified
[8] = target: GST-Ssb2p (S. cerevisiae) (UniProt P40150); assay: as above
[9] = target: eEF1A (eukaryotic translation elongation factor 1A), endogenous (S. cerevisiae (endogenous in yeast)) (UniProt P02994); assay: co-IP; pre-cleared eIF2A-HA yeast lysate, antibody (α-HA, α-3-phosphoglycerate kinase, α-eEF1A antiserum or preimmune serum; α-Kem1p experiments done likewise) at 4°C, protein A Sepharose, NETK washes, Western blot; without RNase A
[10] = target: GST-eEF1A (full-length eEF1A/Tef1p fused to GST) (S. cerevisiae) (UniProt P02994); assay: pull-down; full-length GST-eEF1A on glutathione-Sepharose with lysates of ΔeIF2A yeast carrying YCplac111-YP, grown 1 h without or with 6% ethanol; Western blot for HA, bands quantified with Image J against 8% input; only the target purified

- binding [3]: binds
B1: C-terminally truncated, HA-tagged eIF2A with deletion of amino acids 571–642 (domain or fragment, UniProt P53235 1-571)
chain: MSSQFFLKTSQDIELFQSYPTFEQSNTNSKDFPVISSVLSPCGRFLALSTKENVKVFTGPCLDNVLLTMKLSDVYDLHFSPAGNYLSTWERASIQDPNHKNVKVWYLNKPFKKDCVSEDIVPAYEYQAKSQSGWFLQFSKLDNYGLRLFKHDLKIVKLSSANADNFDFQSPFAVLSDDETSQHFTTYLISPAEHPTICTFTPEKGGKPAQLIIWALSEGKITKKIASKTFFKADSCQLKWNPLGNAILCLAITDFDSSNKSYYGENTLYLLSFQGVNGTLGGNSVRVSLTTGPVHDFTWSPTSRQFGVIAGYMPATISFFDLRGNVVHSLPQQAKNTMLFSPSGHYILIAGFGNLQGSVEILDRLDKFKCVSKFDATNTSVCKWSPGGEFIMTATTSPRLRVDNGVKIWHVSGSLVFVKEFKELLKVDWRSPCNYKTLENKDEAFFENHIINNWEPLPDSTTSSLDPKISNKSELQIHSSVQEYISQHPSREASSNGNGSKAKAGGAYKPPHARRTGGGRIVPGVPPGAAKKTIPGLVPGMSANKDANTKNRRRRANKKSSETSPDSTPAP

- binding [3]: no binding
B2: C-terminally truncated, HA-tagged eIF2A with the further deletion of amino acids 460–571 (domain or fragment, UniProt P53235 1-460)
chain: MSSQFFLKTSQDIELFQSYPTFEQSNTNSKDFPVISSVLSPCGRFLALSTKENVKVFTGPCLDNVLLTMKLSDVYDLHFSPAGNYLSTWERASIQDPNHKNVKVWYLNKPFKKDCVSEDIVPAYEYQAKSQSGWFLQFSKLDNYGLRLFKHDLKIVKLSSANADNFDFQSPFAVLSDDETSQHFTTYLISPAEHPTICTFTPEKGGKPAQLIIWALSEGKITKKIASKTFFKADSCQLKWNPLGNAILCLAITDFDSSNKSYYGENTLYLLSFQGVNGTLGGNSVRVSLTTGPVHDFTWSPTSRQFGVIAGYMPATISFFDLRGNVVHSLPQQAKNTMLFSPSGHYILIAGFGNLQGSVEILDRLDKFKCVSKFDATNTSVCKWSPGGEFIMTATTSPRLRVDNGVKIWHVSGSLVFVKEFKELLKVDWRSPCNYKTLENKDEAFFENHIINNWEPLPDS

- binding [4]: no binding
- binding [3]: binds
- binding [5]: binds
- binding [6]: binds
- binding [7]: binds
- binding [8]: binds
- binding [9]: binds
B3: eIF2A-HA (chromosomally C-terminally HA-tagged eIF2A under its endogenous promoter) (protein, UniProt P53235 1-642)
chain: T2 sequence

The remaining lines, values behind:

Molecule: eEF1A (eukaryotic translation elongation factor 1A), endogenous (from UniProt P02994 1-458)
- binding [1]: no binding
- binding [2]: binds

B4: HA-eIF2A (N-terminally HA-tagged eukaryotic initiation factor 2A expressed from YCplac111-YP) (natural protein, S. cerevisiae, UniProt P53235 1-642, looked up)
chain: T2 sequence
notes: yeast eukaryotic initiation factor 2A, encoded by YGR054w; the HA-tagged eIF2A coding region behind its natural promoter; the kind of modification is not known; also called HA-tagged eIF2A; YGR054w; source: BY4684 ΔeIF2A yeast transformed with YCplac111-YP (native promoter), in lysate; not shown: HA, N-terminal, kept
- binding [10]: binds
